Test system: maize (Zea mays, variety “LORENZO”)
Test: Root growth assay, maize seed treatment
Format: in vivo
Conditions: Root Growth of 100 is set as the standard, wet root weight 16 days post treatment
Source text: Plant roots are a highly proliferative tissue that allows an easy accessible, cheap and short term screening method for plant growth regulators. The results obtained can easily be transferred to the overall effects on a plant of plant growth regulators identified by such a system. By using this root assay one is enabled to determine the effect of a seed treatment to root growth and/or germination and/or changes in habitat of germinated plants in order to identify the possible use as a yield enhancer. Two seeds of wheat (Triticum aestivum, variety “TRISO”) or 1 seed of maize (Zea mays, variety “LORENZO”) per hole in a plastic tray which contains an architecture of 8×13 holes were placed on compost soil covered with sand. These seeds were treated with 100 μl/hole, which creates an application volume of approx. 1200 l/ha, of a compound solution at active ingredient rates equivalent to 100, 10 and 1 g a.i./ha of each compound using an robotic application system (Lizzy Spray Robotics). Six replicates in a row of each compound and concentration were done. The outer rim of the above defined plastic tray was untreated to avoid false negative effects and the middle row (No. 7) was used as untreated control. The treated seeds were allowed to dry for approx. 4 hours and subsequently covered with sand and watered. The trays were stored in climate chambers with 14 hours lighting at a temperature of 24° C. (±2) at daytime and 16° C. (±2) at night and relative humidity (rH) of 60% and daily watered. Assessments were done 16 (±2) days post treatment by counting the germinated plants and assessing the phytotoxicity symptoms and percentage. In addition, the roots were washed out and the shoots were cut directly above the seed and the wet roots were placed on dry paper towels for approximately 30 minutes and weighted afterwards. This procedure provides a similar grade of moisture to the roots so that a comparison of the weights is possible. […]

Structure (SMILES): O=C1Cc2c([nH]c3cc(Cl)cc(Cl)c23)-c2ccccc2N1 [Compound 1.8]
- Root Growth (1 g a.i./ha): 112
- Root Growth (10 g a.i./ha): 78
- Root Growth (100 g a.i./ha): 115
